Measurements from the supplement of paper PMC7661543.
Differences between knockout arms are mostly noise.

What was measured:
[1] = system: HCC-38; assay: relative cell number vs DMSO control (72 h) (% of DMSO); higher = less growth inhibition (more cells)
Procedure: (§1)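 QMAP-Seq: a pool of 5 breast cancer cell lines (ZR-75-1, SKBR3, HCC-38, MDA-MB-231, BT-20), each carrying 12 doxycycline-inducible Cas9 sgRNA perturbations (11 knockouts plus non-targeting sgNT), was treated with compounds for 72 h at four 10-fold doses (10 nM-10 uM or 1 nM-1 uM range). Barcodes were amplified and sequenced, and cell number was interpolated from 293T spike-in standard curves. The result is expressed as % of the median of DMSO wells. Two biological replicates.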

[2] = system: MDA-MB-231; assay: as above
Procedure: as §1

Cn1cnc2c(F)c(Nc3ccc(Br)cc3Cl)c(C(=O)NOCCO)cc21 [Selumetinib]
relative cell number
Conditions | [1] | [2]
sgRNA knockout: sgATF3, 10 nM | 94.4 | 107
sgRNA knockout: sgATF3, 100 nM | 85.8 | 75.9
sgRNA knockout: sgATF3, 1000 nM | 82.516 | 82
sgRNA knockout: sgATF3, 10000 nM | 81.4 | 55.4
sgRNA knockout: sgATF4, 10 nM | 93.69 | 117
sgRNA knockout: sgATF4, 100 nM | 87.1 | 69.6
sgRNA knockout: sgATF4, 1000 nM | 79.1 | 70.8
sgRNA knockout: sgATF4, 10000 nM | 79.6 | 42.9
sgRNA knockout: sgATF6, 10 nM | 96.7 | 111
sgRNA knockout: sgATF6, 100 nM | 84.8 | 103
sgRNA knockout: sgATF6, 1000 nM | 78.7 | 82.7
sgRNA knockout: sgATF6, 10000 nM | 76.2 | 50
sgRNA knockout: sgATG7, 10 nM | 94.7 | 97.5
sgRNA knockout: sgATG7, 100 nM | 79.7 | 103
sgRNA knockout: sgATG7, 1000 nM | 79.1 | 87.3
sgRNA knockout: sgATG7, 10000 nM | 80.9 | 55.5
sgRNA knockout: sgERN1, 10 nM | 96.8 | 91.1
sgRNA knockout: sgERN1, 100 nM | 81.1 | 77.7
sgRNA knockout: sgERN1, 1000 nM | 89.4 | 61.4
sgRNA knockout: sgERN1, 10000 nM | 82.7 | 46.4
sgRNA knockout: sgHSF1, 10 nM | 80.3 | 117
sgRNA knockout: sgHSF1, 100 nM | 71.9 | 77.9
sgRNA knockout: sgHSF1, 1000 nM | 83.1 | 72.8
sgRNA knockout: sgHSF1, 10000 nM | 83.7 | 66
sgRNA knockout: sgHSF2, 10 nM | 101 | 83.1
sgRNA knockout: sgHSF2, 100 nM | 91.3 | 80.9
sgRNA knockout: sgHSF2, 1000 nM | 80.2 | 79.1
sgRNA knockout: sgHSF2, 10000 nM | 84.4 | 51.4
sgRNA knockout: sgKEAP1, 10 nM | 82 | 98.8
sgRNA knockout: sgKEAP1, 100 nM | 81.3 | 85.44
sgRNA knockout: sgKEAP1, 1000 nM | 86.6 | 91.4
sgRNA knockout: sgKEAP1, 10000 nM | 90.6 | 58.2
sgRNA knockout: sgNFE2L2, 10 nM | 91.1 | 94.2
sgRNA knockout: sgNFE2L2, 100 nM | 86.4 | 103
sgRNA knockout: sgNFE2L2, 1000 nM | 75.5 | 86.4
sgRNA knockout: sgNFE2L2, 10000 nM | 73.4 | 37.7
sgRNA knockout: sgSLC35F2, 10 nM | 84 | 102
sgRNA knockout: sgSLC35F2, 100 nM | 85 | 80.3
sgRNA knockout: sgSLC35F2, 1000 nM | 80.4 | 96.1
sgRNA knockout: sgSLC35F2, 10000 nM | 76.5 | 70.9
sgRNA knockout: sgXBP1, 10 nM | 90 | 99.2
sgRNA knockout: sgXBP1, 100 nM | 91.3 | 81.4
sgRNA knockout: sgXBP1, 1000 nM | 78.7 | 68.7
sgRNA knockout: sgXBP1, 10000 nM | 79.9 | 49.43
